# Data: EP0738149B1 (priority 1994, dated 1995)
# Where a name gives a salt, the structure may show the parent alone.
# Tested on: rats
# Test: Maximal electroshock (MES) model in rats, p.o.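 Further: rat MES model gauging antiepileptic efficacy versus generalized and partial seizures after oral dosing.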
# Assay type: in vivo
# Details: PI=TD50/ED50, Table 15
row,Compound,RATS MES PI
1,"C[C@@H]1Cc2ccccc2[C@H]1N [Example 39, (rac)-trans-2-Methyl-1-aminoindan.HCl]",>1
2,"C[C@H]1Cc2ccccc2[C@H]1N [Example 40, (rac)-cis-2-Methyl-1-aminoindan.HCl]",>1
